This passage reports binding results from PMC5382266 (Nature Communications, 2017).

By UniProt entry, the sequences of proteins in these tests, tags left out. Where a name states a change or a piece, a line headed by the entry shows the natural chain unless it says otherwise. Chains listed by the source or under a name are the forms on record and can include a tag or linker.
biotinylated TSLP^R127A/R130S (Q969D9-1, form named): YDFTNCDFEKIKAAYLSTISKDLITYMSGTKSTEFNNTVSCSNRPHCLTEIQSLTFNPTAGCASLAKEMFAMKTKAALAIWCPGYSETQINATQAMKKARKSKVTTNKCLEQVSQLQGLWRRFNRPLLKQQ
TSLP-Arg150Ser (Q969D9-1, form named): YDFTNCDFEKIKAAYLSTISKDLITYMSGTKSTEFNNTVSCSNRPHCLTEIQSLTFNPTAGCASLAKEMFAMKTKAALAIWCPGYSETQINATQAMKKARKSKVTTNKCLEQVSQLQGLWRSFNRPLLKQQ
TSLP-Arg149Ser/Arg150Ser (Q969D9-1, form named): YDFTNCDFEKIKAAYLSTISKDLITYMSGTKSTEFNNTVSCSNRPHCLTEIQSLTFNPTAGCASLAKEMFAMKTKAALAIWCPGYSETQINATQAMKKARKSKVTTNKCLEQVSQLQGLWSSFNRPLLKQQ
TSLP-Arg149Ser (Q969D9-1, form named): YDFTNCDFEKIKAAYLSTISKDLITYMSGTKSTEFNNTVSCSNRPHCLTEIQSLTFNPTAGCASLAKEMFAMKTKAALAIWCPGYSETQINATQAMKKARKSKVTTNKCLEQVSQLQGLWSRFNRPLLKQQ
TSLP-Arg153Ser (Q969D9-1, form named): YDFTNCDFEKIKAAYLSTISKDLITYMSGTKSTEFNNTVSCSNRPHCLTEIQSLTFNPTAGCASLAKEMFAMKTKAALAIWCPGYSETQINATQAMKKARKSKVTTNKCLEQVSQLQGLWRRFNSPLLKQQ

Assay [1] deals with T1, full-length FLAG-tagged human TSLPR (human) (UniProt Q9HC73).
T1 sequence: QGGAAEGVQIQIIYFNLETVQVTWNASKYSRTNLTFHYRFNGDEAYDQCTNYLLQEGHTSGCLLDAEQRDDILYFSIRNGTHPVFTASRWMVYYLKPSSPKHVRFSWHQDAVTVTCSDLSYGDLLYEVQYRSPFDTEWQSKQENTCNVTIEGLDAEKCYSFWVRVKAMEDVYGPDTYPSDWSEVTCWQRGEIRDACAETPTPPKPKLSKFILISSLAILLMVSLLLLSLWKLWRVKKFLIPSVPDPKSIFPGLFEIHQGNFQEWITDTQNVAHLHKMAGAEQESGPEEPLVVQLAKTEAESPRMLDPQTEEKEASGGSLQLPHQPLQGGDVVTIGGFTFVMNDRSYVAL
Nature of the assay: competitive TSLP-SEAP cell binding assay; TSLP-SEAP in conditioned medium (diluted 15-fold) on HEK293T cells expressing TSLPR, 2 h at 6 °C in FACS buffer; bound alkaline phosphatase activity read by chemiluminescence.

For assay [2], the target named is T1, full-length FLAG-tagged human TSLPR (human). Nature of the assay: competitive TSLP-SEAP cell binding assay; different concentrations of unlabelled wild type or mutant TSLP displace TSLP-SEAP from HEK293T cells expressing TSLPR, 2 h at 6 °C in FACS buffer; log inhibitor versus response fit.
Assay [3] has as its target biotinylated TSLP^R127A/R130S (human) (UniProt Q969D9). Nature of the assay: BLI; data not shown; binding profile of TSLP-trap2 to TSLP, told as similar to that of TSLP-trap1; both purified.
For assay [4] the target is unchanged. Put plainly: BLI; biotinylated TSLP^R127A/R130S on streptavidin biosensors, analyte in solution; PBS with 0.01% BSA and 0.002% Tween 20, 25 °C, Octet RED96; 1:1 model; both purified. For orientation: BLI is a label-free optical method that tracks binding on a fibre tip over time.

These are yes or no findings as the source states them, for the method shown. Some binding calls cover weakened binding; strength is not graded here. For some of these results: Where a sequence is shown, tags or fusion partners need not be part of it.

Take “TSLP-SEAP fusion protein (from UniProt Q969D9-1 29-159) (ligand)”: the binding entry in assay [1] is given as “binds”.
Turning to “TSLP-Arg150Ser (from UniProt Q969D9-1 29-159) (ligand)”, the binding entry in assay [2] is recorded as “no binding”.
Regarding “TSLP-trap2 (from UniProt P16871-1 21-239; Q9HC73-1 23-231)”, the binding result in assay [3] is “binds”.
With “TSLP-Arg149Ser/Arg150Ser (from UniProt Q969D9-1 29-159) (ligand)”, the binding result in assay [2] was “no binding”.
Consider “TSLP-Arg149Ser (from UniProt Q969D9-1 29-159) (ligand)”, for which the binding entry in assay [2] was “no binding”.
With “TSLP-Arg153Ser (from UniProt Q969D9-1 29-159) (ligand)”, the binding entry in assay [2] was “no binding”.

B1: soluble IL-7Rα ectodomain (domain or fragment, human, UniProt P16871-1 21-239, looked up)
chain: ESGYAQNGDLEDAELDDYSFSCYSQLEVNGSQHSLTCAFEDPDVNITNLEFEICGALVEVKCLNFRKLQEIYFIETKKFLLIGKSNICVKVGEKSLTCKKIDLTTIVKPEAPFDLSVVYREGANDFVVTFNTSHLQKKYVKVLMHDVAYRQEKDENKWTHVNLSSTKLTLLQRKLQPAAMYEIKVRSIPDHYFKGFWSEWSPSYYFRTPEINNSSGEMD
notes: signal peptide in the construct; extracellular fragment of human IL-7Rα, NP_002176.2, residues 1-239; also called interleukin 7 receptor α-chain
In the case of B1, in assay [4], the binding entry was “no binding”.
